Data: US20240050472A1
Results are given in words; binding and its absence hold for the method and conditions named. Binding can be weak; no strength is given.

Legend:
[1] = target: murine Claudin 18.2 (murine); test: flow cytometry on 293T-Mu18.2 cells
[2] = target: monkey Claudin 18.2 (monkey); test: flow cytometry on 293T-RM18.2 cells

B1: anti-Claudin 18.2 antibody 8D2 (antibody, V domains shown)
VH: QVQLKQSGPELVKPGASVKMSCKASGYTFTSYVMHWVKQKPGQGLEWIGYINPYNDGTKYNEKFKGKATLTSDKSSSTAYMELSSLTSEDSAVYYCARRGYYGPYFDYWGQGTTLTVSS
VL: DIVMTQSPSSLTVTAGEKVTMSCKSSQSLLNGGNQKNYLTWYQQKPGQPPKLLIYWASTRESGVPDRFTGSGSGTDFTLTISSVQAEDLAVYYCQNDYYYPYTFGGGTKLEIK
[1]
  binding: binds
[2]
  binding: binds
